From publication PMC12130248

Tests used:
[1] = molecular target: Rbm24a-GFP (full-length, overexpressed from pCS2-rbm24a-GFP mRNA) (zebrafish); assay: co-IP; tagged proteins overexpressed in wild-type embryos from injected synthetic mRNAs (100 pg), about 50 embryos collected around 10 hpf; GFP-Trap magnetic agarose or anti-GFP antibody on protein G Dynabeads; 10 mM Tris-HCl pH 7.5, 150 mM NaCl, 0.5 mM EDTA, 0.5% NP-40; 4 °C overnight; western …
[2] = molecular target: Rbm24aΔRRM-GFP (disordered C-terminal region of Rbm24a) (zebrafish); assay: as above

binding [1]: binds | binding [2]: binds
B1: Buc-myc (full-length, overexpressed from pCS2-buc-myc mRNA) (protein, UniProt H0WFA5 1-639)
chain: MEGINNNSQPMGVGQPHHPVNHTRPFFYVQPPSQPYFMYQWPMNPYGHYGFPGPALHFGRPYMAPYQFMQYPGYVIPHAPMQPIDYRRINPHYPSVASYDLRVRHHFQNAGMHRETACSEVQTDPSDSVNKLIDKIESLKACELGSDKGPNNVVSSTPDVVQGEKLTRLNEDSNLEVATKECKEDPVTRPTTYSDSAYDAESSQGRLDECVFSDVLPLDSSSVHEEEEEEEKDVNEEDEPQTVADEICSQNEMSASTTSNVFCSGVQSIADPTECHDLEKLGDEQKQDIPSADAAAVIEPLISLSEDFDLPYQILRLPCNKTTTGLSLEREIDPLVYFDSPSTLLPPQNYLSSIGSAYSYSYYPQVTQERQSVLSPSIDELSSRDEMFSTDVEDLEVVPGHVYVGGGRLAEASDMPVRSRKELPSVDKTCSVCQKTCACCGSTLQDEVGMCKMAEHSHPERDEMSDQDCDYDLEAEVRSNCESPRVSKRKCCSRHALPSCGHHCAKHRHRKLLCEGQESCDLREQARVHPKGECCEEYGALAKADKRIQKGALCRPCIEQQWREGVVSDQENWASCGAKPRSWRQVTGPQDQGRTPLRRSTCKSIHQQRPRSEYNDYDETEFTYCQRGRGSMKKRGSRY

These are yes or no findings as the source states them, for the method shown. Binding seen in cells or lysates may run through a third protein. A result given as binding can be weak or reduced; the word gives no strength. Sequences can lack the tags named with a protein.
